According to PubChem BioAssay AID540276 (National Center for Advancing Translational Sciences (NCATS), 2011):
About 5,400 (1.8%) of roughly 300,000 compounds were called active. Inconclusive results, whose numbers are uncertain, are shown with a selection of clear calls. The call rests on the fitted dose curve; tested in HEK293 cells. A potency beside an inconclusive call is a rough fit, not a confirmed value.

Assay: qHTS for inhibitors of binding or entry into cells for Marburg Virus
Conditions: Marburg virus pseudotyped entry inhibition, cell reporter; activity change, negative = inhibition: at 37.8 µM (top of the series) unless noted
On the % scale 0 is the no-effect control and ±100 the full control effect; potency means the concentration at half of the fitted maximal effect.

With CC(C)CCNC(=O)c1ccc(Cn2c(=S)[nH]c3ccccc3c2=O)cc1 as the molecule, how does the Potency read?
The Potency was inconclusive: 2.82 µM [inhibitor, partial curve, poor fit].

Which Potency does the source give for Cn1c(SCC(=O)N2CCOCC2)nnc1-c1ccco1 here?
Its Potency is inconclusive: 1.58 µM [inhibitor, partial curve, poor fit].

With Cc1cc(Nc2ccccc2Cl)c2ccccc2n1 as the molecule, how does the Potency read?
Its Potency is inconclusive: 15.8 µM [inhibitor, single point].

For Cc1ccc(SCCC(=O)Nc2cccc(N(C)S(C)(=O)=O)c2)cc1, which Potency is on record?
The Potency was inconclusive: 29.1 µM [activator, single point].

Which Potency does the source give for CCSc1nnc(NC(=O)Cc2ccc(OC)c(OC)c2)s1 here?
The Potency was “inactive”.

For CC(=O)Nc1c(Cl)n(C(C)=O)c2ccccc12, which Potency is on record?
Its Potency is inconclusive: 35.5 µM [activator, single point].

For Oc1ccccc1/C=N/Nc1ncc(Br)cn1, which Potency is on record?
The Potency was “inactive”.

Which Potency does the source give for CCN(/C=N/c1sc2c(c1C#N)CCCCC2)CC here?
The Potency was inconclusive: 0.631 µM [activator, full curve, poor fit].

Which Potency does the source give for COc1cccc(CN(C)C(=O)c2ccc3nccnc3c2)c1 here?
The Potency was “inactive”.

Which Potency does the source give for O=C(c1cc(S(=O)(=O)N2CCOCC2)ccc1Cl)N1CCC(Cc2ccccc2)CC1 here?
The Potency was inconclusive: 11.2 µM [inhibitor, single point].

Which Potency does the source give for COc1ccc(N2CCN(c3oc(-c4ccccc4C)nc3S(=O)(=O)c3ccccc3)CC2)cc1 here?
Its Potency is “inactive”.

For CC(C)CC(C(=O)NC(C)(C)C)N(CC1CCCO1)C(=O)c1snc(C(N)=O)c1N (configuration not stated), which Potency is on record?
The Potency was inconclusive: 7.94 µM [activator, partial curve, poor fit].

For CC(C)(C)c1cc[n+](CC(=O)Nc2cc(C(F)(F)F)ccc2N2CCOCC2)cc1, which Potency is on record?
The Potency was “inactive”.

For c1ccc(-c2ccc(OCCCNC3CCCC3)cc2)cc1, which Potency is on record?
The Potency was inconclusive: 6.31 µM [inhibitor, full curve, poor fit].

Which Potency does the source give for CC(=O)Nc1ccc(S(=O)(=O)N2CCC(c3nc4ccccc4[nH]3)CC2)cc1 here?
The Potency was inconclusive: 5.8 µM [inhibitor, partial curve, poor fit].

For CCC(C)(C)NC(=O)COc1ccc(OCc2ccccc2)cc1, which Potency is on record?
Its Potency is “inactive”.

With CCc1cc2c(N3CCN(c4nnc(CC)s4)CC3)ncnc2s1 as the molecule, how does the Potency read?
Its Potency is inconclusive: 35.5 µM [inhibitor, single point].

Which Potency does the source give for COC(=O)C(NC(=O)c1ccc(OC)cc1)(Nc1ncc(S(=O)(=O)c2ccc([N+](=O)[O-])cc2)s1)C(F)(F)F (configuration not stated) here?
The Potency was inconclusive: 29.1 µM [inhibitor, single point].

With Cc1cc(/C=C2\SC(=O)NC2=O)c(C)n1-c1ccc(N(C)C)cc1 as the molecule, how does the Potency read?
The Potency was “inactive”.

Which Potency does the source give for Nc1ccc(C(=O)OCC2=NC3C=c4ccccc4=CC3=N2)cc1 (configuration not stated) here?
Its Potency is active: 1.64 µM.

With CC(NC(=O)C1CC12CCC2)c1ccccc1 (configuration not stated) as the molecule, how does the Potency read?
Its Potency is “inactive”.

For CCOc1ccc(OCCNC(=O)c2cc(C3CC3)nc3c2cnn3C(C)C)cc1, which Potency is on record?
Its Potency is inconclusive: 35.5 µM [inhibitor, single point].

For O=C(CCCOc1ccccc1)Nc1nccs1, which Potency is on record?
Its Potency is “inactive”.

For CC1Cc2ccccc2N1C(=O)CSc1nnc(Cc2ccccc2)n1CCc1ccccc1 (configuration not stated), which Potency is on record?
The Potency was inconclusive: 15.8 µM [inhibitor, single point].

For Cc1nn(CC(=O)c2cccc(Cl)c2)c(C)c1[N+](=O)[O-], which Potency is on record?
The Potency was “inactive”.

For CO/N=C\CC(=O)Nc1ccc(Cl)cc1Cl, which Potency is on record?
The Potency was inconclusive: 3.55 µM [inhibitor, single point].

Which Potency does the source give for COc1cccc(-n2c(-c3ccco3)nc3c(cnn3-c3ccccc3C)c2=O)c1 here?
Its Potency is inconclusive: 35.5 µM [inhibitor, single point].

Which Potency does the source give for O=C(NNc1ccccc1Br)C(O)(c1cccc(C(F)(F)F)c1)c1cccc(C(F)(F)F)c1 here?
The Potency was inconclusive: 31.6 µM [inhibitor, single point].

For CSc1ccc(/C=N/n2c(Cc3ccc(Br)cc3)n[nH]c2=S)cc1, which Potency is on record?
Its Potency is “inactive”.

For CCN(CC)CCCn1c(=S)[nH]c2ccc(Cl)cc2c1=O, which Potency is on record?
The Potency was “inactive”.

For CC(C)c1ccc(C(=O)Nc2ccc(-c3nc4ccccc4s3)c(Cl)c2)cc1, which Potency is on record?
Its Potency is “inactive”.

Which Potency does the source give for COc1ccc(CNc2oc(COc3ccccc3)nc2C#N)cc1 here?
Its Potency is “inactive”.

For O=S(=O)(c1ccc(Cl)cc1)N1CCN(c2nc(-c3cccs3)nc3ccccc23)CC1, which Potency is on record?
The Potency was “inactive”.

Which Potency does the source give for Cc1occc1-c1nnc(SCC(=O)Nc2ccccn2)o1 here?
Its Potency is inconclusive: 10 µM [inhibitor, partial curve].

With CCC(=O)CC(NC(=O)OC)c1ccc(F)cc1 (configuration not stated) as the molecule, how does the Potency read?
The Potency was “inactive”.

With COC(C(=O)Nc1ccc(S(=O)(=O)Nc2cccc3ccccc23)cc1)c1ccccc1 (configuration not stated) as the molecule, how does the Potency read?
The Potency was “inactive”.

For Cc1ccccc1Nc1cc(C(=O)NC2CCC(C)CC2)c2ccccc2n1 (configuration not stated), which Potency is on record?
The Potency was inconclusive: 3.55 µM [activator, single point].

For Cn1ccnc1SCc1ccc(Cl)cc1Cl, which Potency is on record?
Its Potency is inconclusive: 7.08 µM [inhibitor, partial curve, poor fit].

With COc1cc(OC)cc(C(=O)NCCCCCCNC(=O)c2cc(OC)cc(OC)c2)c1 as the molecule, how does the activity change, negative = inhibition read?
The activity change, negative = inhibition was inconclusive: 5.15% [activator].

For Cn1c(Br)nc2c1c(=O)n(CC(O)COc1ccccc1)c(=O)n2C (configuration not stated), which Potency is on record?
Its Potency is inconclusive: 3.16 µM [activator, single point].

For O=C(c1cn(-c2ccccc2)nc1-c1ccccc1)N1CCOCC1, which Potency is on record?
Its Potency is “inactive”.

Which Potency does the source give for Cc1nc(C)n(CC(=O)c2ccc(Cl)cc2Cl)n1 here?
The Potency was inconclusive: 0.794 µM [activator, full curve, poor fit].

Which Potency does the source give for COc1ccccc1/C=N\NC(=O)c1ccc(COc2ccc(C)c(C)c2)o1 here?
The Potency was inconclusive: 1.78 µM [activator, partial curve, poor fit].

Which Potency does the source give for Cc1onc(-c2c(F)cccc2Cl)c1C(=O)NNC(=O)C1CCN(Cc2ccccc2)CC1 here?
The Potency was inconclusive: 11.2 µM [inhibitor, single point].

With Cn1c(=O)c2c(ncn2CC(=O)OCC(=O)NCc2ccccc2Cl)n(C)c1=O as the molecule, how does the Potency read?
The Potency was inconclusive: 29.1 µM [activator, single point].

For CC(C)CC(=O)NC(=S)Nc1ccc(N2CCN(C(=O)c3cccs3)CC2)cc1, which Potency is on record?
Its Potency is inconclusive: 17.8 µM [inhibitor, single point].

With CCOc1ccc(C(=O)N2CCN(c3ccccn3)CC2)cc1OCC as the molecule, how does the Potency read?
Its Potency is “inactive”.

For NC(N)=Nc1nc(-c2ccccc2)c2cc(F)ccc2n1, which Potency is on record?
The Potency was inconclusive: 11.2 µM [inhibitor, partial curve, poor fit].

With Cc1cccc(/C=C\c2ccccc2)n1 as the molecule, how does the Potency read?
The Potency was inconclusive: 6.31 µM [activator, full curve].

Which Potency does the source give for C=C(C)C1CC=C(C)/C(=N/NC(=O)COc2ccccc2C)C1 (configuration not stated) here?
The Potency was inconclusive: 3.98 µM [inhibitor, partial curve, poor fit].

With CCCc1nnc(NC(=S)Nc2ccccc2)s1 as the molecule, how does the Potency read?
The Potency was “inactive”.

For Cc1ccn2c(NC(=O)C(C)(C)Oc3ccc(Cl)cc3)c(-c3cccs3)nc2c1, which Potency is on record?
Its Potency is inconclusive: 9.2 µM [inhibitor, partial curve, poor fit].

Which Potency does the source give for COc1ccc(C(=O)N/N=C/c2ccc(OC)c(CN3CCCc4ccccc43)c2)cc1 here?
The Potency was inconclusive: 2.06 µM [activator, partial curve, poor fit].

For CCn1c(-c2ccncc2)n[nH]c1=S, which activity change, negative = inhibition is on record?
The activity change, negative = inhibition was inconclusive: 1.29% [activator] [at 46.1 µM].

For COc1ccc(F)cc1S(=O)(=O)NCc1ccccc1, which Potency is on record?
The Potency was inconclusive: 20 µM [activator, single point].

With Cc1cc(=O)n2nc(N3CCC(C(=O)NCc4ccccc4F)CC3)sc2n1 as the molecule, how does the Potency read?
The Potency was “inactive”.

Which Potency does the source give for CCOC(=O)c1c(NC(=O)C2CCCN(S(=O)(=O)c3ccccc3)C2)sc2c1CCCC2 (configuration not stated) here?
The Potency was inconclusive: 0.501 µM [inhibitor, full curve].

With CCSc1nc(N)nc2c1ncn2C1OC(CO)C(O)C1O (configuration not stated) as the molecule, how does the Potency read?
Its Potency is “inactive”.

Which Potency does the source give for O=C(NCCN1C(=O)S/C(=C\c2ccc(Cl)c([N+](=O)[O-])c2)C1=O)C1=COCCO1 here?
The Potency was inconclusive: 14.1 µM [inhibitor, single point].

For NNC(=O)C1C(O)CCC2CN3CCc4c([nH]c5ccccc45)C3CC21 (configuration not stated), which Potency is on record?
The Potency was inconclusive: 11.2 µM [activator, partial curve].

Which Potency does the source give for O=C(Nc1ccc(Br)cc1F)C1CCCO1 (configuration not stated) here?
Its Potency is “inactive”.

Which Potency does the source give for CCC1(C)CC(=O)NC1=O (configuration not stated) here?
Its Potency is inconclusive: 29.1 µM [activator, partial curve, poor fit].

With CCOC(=O)c1cn2nc(Oc3ccc(NC(C)=O)cc3)ccc2n1 as the molecule, how does the Potency read?
The Potency was inconclusive: 31.6 µM [activator, single point].

Which Potency does the source give for N#Cc1c(C(F)(F)F)cc(-c2ccco2)nc1SCc1ccncc1 here?
The Potency was inconclusive: 29.1 µM [inhibitor, single point].

For O=C(CN1CCC(C(O)(c2ccccc2)c2ccccc2)CC1)Nc1cc(Cl)ccc1Cl, which Potency is on record?
Its Potency is inconclusive: 11.6 µM [inhibitor, partial curve, poor fit].

Which Potency does the source give for CCc1ccc(OCC(=O)Nc2ccc(-c3nc4ccccc4o3)c(O)c2)cc1 here?
Its Potency is inconclusive: 6.31 µM [activator, single point].

For COc1ccccc1N(C(=O)c1snc(C(N)=O)c1N)C(C(=O)NCc1ccccc1)c1ccc(O)cc1 (configuration not stated), which Potency is on record?
Its Potency is “inactive”.

With CCOC(=O)c1cnn(-c2cc(C(C)(C)C)nc3c(-c4ccccc4)c(C)nn23)c1N as the molecule, how does the Potency read?
The Potency was “inactive”.

Which Potency does the source give for CC(=O)Nc1ccccc1OCc1cc(=O)n2c(C)csc2n1 here?
Its Potency is “inactive”.

Which Potency does the source give for CC1CCCCC1NC(=O)C1CCN(S(=O)(=O)c2cccc3nonc23)CC1 (configuration not stated) here?
The Potency was “inactive”.

With COc1ccc(/C=N/NC(=O)C2c3ccccc3-c3ccccc32)cc1 as the molecule, how does the Potency read?
Its Potency is inconclusive: 0.891 µM [inhibitor, full curve, poor fit].

For Cc1ccc(C(=O)CSc2nc3ccccc3c(=O)[nH]2)cc1C, which Potency is on record?
The Potency was inconclusive: 3.55 µM [activator, single point].
